In the test the target is T1, Flag‐HMGA2‐S105A mutant (human) (UniProt P52926).
T1 sequence: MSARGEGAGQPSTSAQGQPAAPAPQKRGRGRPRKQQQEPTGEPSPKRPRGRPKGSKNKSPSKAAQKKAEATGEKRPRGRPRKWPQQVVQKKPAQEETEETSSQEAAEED
Description: co-IP; TRIM21 interaction of HMGA2-S105A against wild type (Figure S5E; legend not shown; co-IP is the only binding method that the paper describes).

By UniProt entry, the sequences of proteins in these tests, tags left out.
UniProt P19474: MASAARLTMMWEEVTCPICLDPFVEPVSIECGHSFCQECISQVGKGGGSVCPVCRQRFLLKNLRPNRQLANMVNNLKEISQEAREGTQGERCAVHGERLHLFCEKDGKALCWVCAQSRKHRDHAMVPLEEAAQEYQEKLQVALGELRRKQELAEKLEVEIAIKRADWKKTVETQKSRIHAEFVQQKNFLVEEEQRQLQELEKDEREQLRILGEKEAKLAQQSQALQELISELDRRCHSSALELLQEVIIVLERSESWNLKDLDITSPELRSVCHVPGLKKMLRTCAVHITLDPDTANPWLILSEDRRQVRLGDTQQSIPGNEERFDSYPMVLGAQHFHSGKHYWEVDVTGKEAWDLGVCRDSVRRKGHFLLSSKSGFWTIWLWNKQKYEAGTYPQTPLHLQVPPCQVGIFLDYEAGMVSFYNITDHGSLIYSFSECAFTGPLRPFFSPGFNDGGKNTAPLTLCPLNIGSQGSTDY

Consider 1 substance from PMC12225019.

No constants are given. Whether binding was seen depends on the method and setting. In cells and extracts the contact can be indirect. Some results given as binding are weak or reduced against the parent protein; the word gives no strength. Sequences can lack the tags named with a protein.

Turning to “tripartite motif‐containing 21 (TRIM21) (from UniProt P19474 1-475)”, the binding entry is reported as “binds”.
